Among the data in publication PMC9888393 are binding values, retold here.

Protein sequences, listed by entry. Tags and fused reporters are not part of them. Residues count along the entry.
UniProt Q9NZQ7, residues 19-290: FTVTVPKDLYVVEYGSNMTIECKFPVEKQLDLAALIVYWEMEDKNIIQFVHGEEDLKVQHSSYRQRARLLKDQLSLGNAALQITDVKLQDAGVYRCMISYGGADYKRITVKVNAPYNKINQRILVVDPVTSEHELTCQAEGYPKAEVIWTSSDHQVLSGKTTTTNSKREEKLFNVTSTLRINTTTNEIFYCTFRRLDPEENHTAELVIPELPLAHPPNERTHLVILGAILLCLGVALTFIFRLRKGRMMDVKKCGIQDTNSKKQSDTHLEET
UniProt P61006: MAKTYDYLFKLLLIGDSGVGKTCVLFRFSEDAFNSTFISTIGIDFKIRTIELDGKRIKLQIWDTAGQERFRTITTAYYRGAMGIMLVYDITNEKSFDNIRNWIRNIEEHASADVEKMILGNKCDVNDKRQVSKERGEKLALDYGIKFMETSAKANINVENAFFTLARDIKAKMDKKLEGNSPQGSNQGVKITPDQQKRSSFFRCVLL
UniProt P61026: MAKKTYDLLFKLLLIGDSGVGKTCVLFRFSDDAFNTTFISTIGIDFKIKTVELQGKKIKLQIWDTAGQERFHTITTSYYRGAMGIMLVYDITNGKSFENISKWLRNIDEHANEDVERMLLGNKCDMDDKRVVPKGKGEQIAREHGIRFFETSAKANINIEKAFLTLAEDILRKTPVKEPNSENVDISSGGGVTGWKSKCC

The target of the experiment is FLAG–PD-L1 (RC213071) in the pCMV6-Entry vector (human) (UniProt Q9NZQ7). As to the kind of experiment: affinity purification with mass spectrometry; PD-L1–interacting proteins in 293T cells overexpressing MIB2.

No constants are given. Whether binding was seen depends on the method and setting. Binding seen in cells or lysates may run through a third protein. These calls come from enrichment with a bait or labelling near it, and not all partners need be listed.

On to RAB8A (from UniProt P61006 1-207), for which the binding result is “binds”.
For RAB10 (from UniProt P61026 1-200) the value was “binds”.
